From patent publication US20080119428A1
These are yes or no findings as the source states them, for the method shown. Binding seen in cells or lysates may run through a third protein. Some results given as binding are weak or reduced against the parent protein; the word gives no strength. Tags and fused reporters may be left off the sequences shown.

Amino acid sequences for entries named in this document (tags omitted).
UniProt P07814: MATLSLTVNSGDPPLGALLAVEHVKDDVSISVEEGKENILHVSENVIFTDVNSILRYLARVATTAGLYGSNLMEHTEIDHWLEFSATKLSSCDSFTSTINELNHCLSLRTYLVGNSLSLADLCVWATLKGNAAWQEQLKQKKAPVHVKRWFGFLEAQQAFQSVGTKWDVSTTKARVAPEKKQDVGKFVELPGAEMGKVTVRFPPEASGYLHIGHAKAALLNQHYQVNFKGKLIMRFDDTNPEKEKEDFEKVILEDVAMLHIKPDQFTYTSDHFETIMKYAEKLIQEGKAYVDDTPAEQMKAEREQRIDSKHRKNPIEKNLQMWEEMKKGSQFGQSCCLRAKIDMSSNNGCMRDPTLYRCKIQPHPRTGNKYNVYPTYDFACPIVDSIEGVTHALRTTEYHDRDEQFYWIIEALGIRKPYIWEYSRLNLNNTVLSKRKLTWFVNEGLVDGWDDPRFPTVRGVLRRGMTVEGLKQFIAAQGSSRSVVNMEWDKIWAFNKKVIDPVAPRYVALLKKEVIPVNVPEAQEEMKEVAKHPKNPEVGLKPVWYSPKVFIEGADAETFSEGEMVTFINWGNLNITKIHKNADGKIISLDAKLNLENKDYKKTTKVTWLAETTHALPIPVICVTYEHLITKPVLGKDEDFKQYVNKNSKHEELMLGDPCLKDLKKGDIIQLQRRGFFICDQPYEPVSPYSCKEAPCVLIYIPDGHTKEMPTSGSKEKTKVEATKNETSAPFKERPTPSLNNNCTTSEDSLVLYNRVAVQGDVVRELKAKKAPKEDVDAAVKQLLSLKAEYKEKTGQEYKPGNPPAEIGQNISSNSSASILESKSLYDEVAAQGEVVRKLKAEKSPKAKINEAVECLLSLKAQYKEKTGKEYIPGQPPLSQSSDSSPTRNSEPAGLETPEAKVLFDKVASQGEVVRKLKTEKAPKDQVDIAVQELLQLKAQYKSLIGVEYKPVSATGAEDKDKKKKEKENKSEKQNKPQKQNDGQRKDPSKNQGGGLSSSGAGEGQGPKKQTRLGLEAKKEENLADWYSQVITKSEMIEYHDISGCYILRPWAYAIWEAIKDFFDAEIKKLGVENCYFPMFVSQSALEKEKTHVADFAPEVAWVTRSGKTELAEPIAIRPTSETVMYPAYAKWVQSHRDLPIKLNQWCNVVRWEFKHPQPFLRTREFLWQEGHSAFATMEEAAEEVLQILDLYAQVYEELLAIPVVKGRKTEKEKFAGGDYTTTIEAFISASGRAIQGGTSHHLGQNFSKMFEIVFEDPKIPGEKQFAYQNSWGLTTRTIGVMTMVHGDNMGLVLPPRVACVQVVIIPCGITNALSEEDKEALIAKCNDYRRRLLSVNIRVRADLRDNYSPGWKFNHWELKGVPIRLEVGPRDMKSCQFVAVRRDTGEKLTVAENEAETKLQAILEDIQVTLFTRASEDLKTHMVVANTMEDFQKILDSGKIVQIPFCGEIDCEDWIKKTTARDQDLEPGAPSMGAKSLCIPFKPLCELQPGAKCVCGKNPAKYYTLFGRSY

Biological target: FLAG-tagged EPRS (UniProt P07814)
Assay: reciprocal co-immunoprecipitation and western blot, both proteins transfected into LC319 cells

binding: binds
B1: myc-tagged-IMS-E21 (URLC8) (enzyme)
chain: MILNSLSLCYHNKLILAPMVRVGTLPMRLLALDYGADIVYCEELIDLKMIQCKRVVNEVLSTVDFVAPDDRVVFRTCEREQNRVVFQMGTSDAERALAVARLVENDVAGIDVNMGCPKQYSTKGGMGAALLSDPDKIEKILSTLVKGTRRPVTCKIRILPSLEDTLSLVKRIERTGIAAIAVHGRKREERPQHPVSCEVIKAIADTLSIPVIANGGSHDHIQQYSDIEDFRQATAASSVMVARAAMWNPSIFLKEGLRPLEEVMQKYIRYAVQYDNHYTNTKYCLCQMLREQLESPQGRLLHAAQSSREICEAFGLGAFYEETTQELDAQQARLSAKTSEQTGEPAEDTSGVIKMAVKFDRRAYPAQITPKMCLLEWCRREKLAQPVYETVQRPLDRLFSSIVTVAEQKYQSTLWDKSKKLAEQAAAIVCLRSQGLPEGRLGEESPSLHKRKREAPDQDPGGPRAQELAQPGDLCKKPFVALGSGEESPLEGWLDEESILKQEHHHHHH
